These are yes or no findings as the source states them, for the method shown. Binding seen in cells or lysates may run through a third protein. A yes stands for co-enrichment or nearness to the bait. Other partners may have been found. A no says only that the protein was not detected with the bait. Where a sequence is shown, tags or fusion partners need not be part of it.
T1: endogenous WDR33 with a C-terminal HTBH tag (human (endogenous in HEK293T)) (UniProt Q9C0J8)
T1 sequence (chain, biotin on the biotin acceptor peptide of the tag (by endogenous enzymes)): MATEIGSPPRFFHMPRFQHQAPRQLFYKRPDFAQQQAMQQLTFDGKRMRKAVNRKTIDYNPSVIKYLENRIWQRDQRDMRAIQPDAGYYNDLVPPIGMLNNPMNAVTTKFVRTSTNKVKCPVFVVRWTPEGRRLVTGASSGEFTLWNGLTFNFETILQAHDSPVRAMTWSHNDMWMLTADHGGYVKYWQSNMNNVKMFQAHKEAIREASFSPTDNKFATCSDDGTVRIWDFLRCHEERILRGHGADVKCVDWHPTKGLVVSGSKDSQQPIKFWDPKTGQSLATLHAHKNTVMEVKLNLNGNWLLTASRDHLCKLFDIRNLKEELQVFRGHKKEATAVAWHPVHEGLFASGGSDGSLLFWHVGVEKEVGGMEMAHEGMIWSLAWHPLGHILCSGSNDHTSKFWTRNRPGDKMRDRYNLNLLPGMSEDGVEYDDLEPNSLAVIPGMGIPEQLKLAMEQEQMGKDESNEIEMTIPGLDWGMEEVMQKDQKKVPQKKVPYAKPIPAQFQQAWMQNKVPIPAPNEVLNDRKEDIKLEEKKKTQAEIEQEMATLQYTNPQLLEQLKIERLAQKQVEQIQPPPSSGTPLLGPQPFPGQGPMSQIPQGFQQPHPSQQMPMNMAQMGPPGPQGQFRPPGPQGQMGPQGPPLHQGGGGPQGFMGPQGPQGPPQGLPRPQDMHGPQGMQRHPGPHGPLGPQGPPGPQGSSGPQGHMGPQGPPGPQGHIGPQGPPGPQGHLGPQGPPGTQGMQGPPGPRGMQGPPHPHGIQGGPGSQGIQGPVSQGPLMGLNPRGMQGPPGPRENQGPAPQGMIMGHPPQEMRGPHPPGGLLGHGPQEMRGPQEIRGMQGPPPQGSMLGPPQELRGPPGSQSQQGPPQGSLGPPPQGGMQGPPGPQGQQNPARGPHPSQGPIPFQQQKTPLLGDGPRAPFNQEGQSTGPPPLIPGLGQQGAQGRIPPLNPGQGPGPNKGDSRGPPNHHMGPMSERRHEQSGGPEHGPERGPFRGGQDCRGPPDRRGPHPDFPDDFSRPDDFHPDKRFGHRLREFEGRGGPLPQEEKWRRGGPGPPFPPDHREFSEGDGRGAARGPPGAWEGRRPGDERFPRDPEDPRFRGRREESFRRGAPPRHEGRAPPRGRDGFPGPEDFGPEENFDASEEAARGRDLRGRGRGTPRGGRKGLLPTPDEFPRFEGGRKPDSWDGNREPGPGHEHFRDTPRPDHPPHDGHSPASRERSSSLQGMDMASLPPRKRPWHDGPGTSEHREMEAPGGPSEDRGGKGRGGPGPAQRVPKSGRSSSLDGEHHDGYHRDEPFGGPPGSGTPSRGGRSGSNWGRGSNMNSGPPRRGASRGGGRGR

The chains behind the UniProt entries cited, without tags or fusion partners.
UniProt Q7Z6E9: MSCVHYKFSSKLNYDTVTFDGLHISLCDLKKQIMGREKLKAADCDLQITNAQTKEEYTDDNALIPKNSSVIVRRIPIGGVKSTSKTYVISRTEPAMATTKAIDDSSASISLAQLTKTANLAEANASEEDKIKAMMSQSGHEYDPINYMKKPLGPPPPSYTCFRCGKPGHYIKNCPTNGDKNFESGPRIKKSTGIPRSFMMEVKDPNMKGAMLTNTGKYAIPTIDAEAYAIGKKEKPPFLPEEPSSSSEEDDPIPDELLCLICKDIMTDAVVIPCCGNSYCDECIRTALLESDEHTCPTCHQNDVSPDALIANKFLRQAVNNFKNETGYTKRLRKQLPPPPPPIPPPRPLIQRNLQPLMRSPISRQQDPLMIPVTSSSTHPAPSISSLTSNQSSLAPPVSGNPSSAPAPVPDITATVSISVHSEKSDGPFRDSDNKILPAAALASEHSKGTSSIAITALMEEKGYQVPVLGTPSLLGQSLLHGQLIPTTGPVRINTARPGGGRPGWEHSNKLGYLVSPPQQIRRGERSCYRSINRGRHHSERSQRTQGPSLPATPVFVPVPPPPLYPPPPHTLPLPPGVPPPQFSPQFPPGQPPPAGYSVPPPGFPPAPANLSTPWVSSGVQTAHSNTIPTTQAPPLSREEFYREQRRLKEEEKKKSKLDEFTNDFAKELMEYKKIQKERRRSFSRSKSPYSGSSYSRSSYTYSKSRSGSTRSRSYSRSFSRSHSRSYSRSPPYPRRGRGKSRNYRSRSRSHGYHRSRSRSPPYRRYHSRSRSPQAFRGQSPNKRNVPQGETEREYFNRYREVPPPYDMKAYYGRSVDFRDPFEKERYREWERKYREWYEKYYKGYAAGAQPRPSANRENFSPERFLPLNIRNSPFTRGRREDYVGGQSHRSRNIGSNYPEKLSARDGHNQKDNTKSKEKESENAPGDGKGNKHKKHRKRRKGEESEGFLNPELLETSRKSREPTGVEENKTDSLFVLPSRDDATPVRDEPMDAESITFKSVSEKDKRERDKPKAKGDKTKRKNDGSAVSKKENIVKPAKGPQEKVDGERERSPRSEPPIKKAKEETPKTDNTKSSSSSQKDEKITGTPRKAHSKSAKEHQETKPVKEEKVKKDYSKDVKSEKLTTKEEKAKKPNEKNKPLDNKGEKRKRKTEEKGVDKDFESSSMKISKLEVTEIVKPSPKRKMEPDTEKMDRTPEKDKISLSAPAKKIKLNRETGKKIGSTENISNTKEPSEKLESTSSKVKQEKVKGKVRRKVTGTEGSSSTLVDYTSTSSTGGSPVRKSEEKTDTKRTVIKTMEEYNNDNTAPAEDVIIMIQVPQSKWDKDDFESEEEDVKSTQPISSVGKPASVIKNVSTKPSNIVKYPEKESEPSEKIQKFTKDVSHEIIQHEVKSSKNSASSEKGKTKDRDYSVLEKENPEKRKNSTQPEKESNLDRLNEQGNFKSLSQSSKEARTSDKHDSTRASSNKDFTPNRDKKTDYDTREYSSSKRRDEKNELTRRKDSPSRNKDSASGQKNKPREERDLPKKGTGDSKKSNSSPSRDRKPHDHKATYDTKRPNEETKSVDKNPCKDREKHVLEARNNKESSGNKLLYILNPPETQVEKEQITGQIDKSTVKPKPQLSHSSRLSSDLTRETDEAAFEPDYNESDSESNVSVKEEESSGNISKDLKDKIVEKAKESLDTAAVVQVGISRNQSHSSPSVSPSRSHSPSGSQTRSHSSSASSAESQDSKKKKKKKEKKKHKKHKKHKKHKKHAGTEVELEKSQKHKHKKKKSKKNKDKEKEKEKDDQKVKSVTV
UniProt O95639: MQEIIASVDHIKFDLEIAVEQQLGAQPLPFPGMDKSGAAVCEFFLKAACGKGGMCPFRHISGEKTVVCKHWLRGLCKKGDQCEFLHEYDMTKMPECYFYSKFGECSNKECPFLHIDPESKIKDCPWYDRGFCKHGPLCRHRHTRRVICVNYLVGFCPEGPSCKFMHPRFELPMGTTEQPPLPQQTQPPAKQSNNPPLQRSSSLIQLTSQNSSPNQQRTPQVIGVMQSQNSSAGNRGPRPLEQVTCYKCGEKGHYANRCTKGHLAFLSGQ


Each molecule was assayed against T1, endogenous WDR33 with a C-terminal HTBH tag (human (endogenous in HEK293T)) (assay: affinity purification with mass spectrometry; endogenous CPSF held on Strep-Tactin beads by the biotinylated HTBH tag of WDR33, from HEK293T total cell extract (replicate 1) or nuclear extract (replicates 2 and 3); 300 mM NaCl or KCl; eluted with TEV protease; SDS-PAGE and tandem mass spectrometry).

Molecule	binding
RBBP6, endogenous (from UniProt Q7Z6E9 1-1792)	no binding
CPSF30, endogenous (from UniProt O95639 1-269)	binds
hFip1, endogenous (protein, UniProt Q6UN15 1-594) MSAGEVERLVSELSGGTGGDEEEEWLYGGPWDVHVHSDLAKDLDENEVERPEEENASANPPSGIEDETAENGVPKPKVTETEDDSDSDSDDDEDDVHVTIGDIKTGAPQYGSYGTAPVNLNIKTGGRVYGTTGTKVKGVDLDAPGSINGVPLLEVDLDSFEDKPWRKPGADLSDYFNYGFNEDTWKAYCEKQKRIRMGLEVIPVTSTTNKITAEDCTMEVTPGAEIQDGRFNLFKVQQGRTGNSEKETALPSTKAEFTSPPSLFKTGLPPSRNSTSSQSQTSTASRKANSSVGKWQDRYGRAESPDLRRLPGAIDVIGQTITISRVEGRRRANENSNIQVLSERSATEVDNNFSKPPPFFPPGAPPTHLPPPPFLPPPPTVSTAPPLIPPPGFPPPPGAPPPSLIPTIESGHSSGYDSRSARAFPYGNVAFPHLPGSAPSWPSLVDTSKQWDYYARREKDRDRERDRDRERDRDRDRERERTRERERERDHSPTPSVFNSDEERYRYREYAERGYERHRASREKEERHRERRHREKEETRHKSSRSNSRRRHESEEGDSHRRHKHKKSKRSKEGKEAGSEPAPEQESTEATPAE	binds
CPSF73, endogenous (protein, UniProt Q9UKF6 1-684) MSAIPAEESDQLLIRPLGAGQEVGRSCIILEFKGRKIMLDCGIHPGLEGMDALPYIDLIDPAEIDLLLISHFHLDHCGALPWFLQKTSFKGRTFMTHATKAIYRWLLSDYVKVSNISADDMLYTETDLEESMDKIETINFHEVKEVAGIKFWCYHAGHVLGAAMFMIEIAGVKLLYTGDFSRQEDRHLMAAEIPNIKPDILIIESTYGTHIHEKREEREARFCNTVHDIVNRGGRGLIPVFALGRAQELLLILDEYWQNHPELHDIPIYYASSLAKKCMAVYQTYVNAMNDKIRKQININNPFVFKHISNLKSMDHFDDIGPSVVMASPGMMQSGLSRELFESWCTDKRNGVIIAGYCVEGTLAKHIMSEPEEITTMSGQKLPLKMSVDYISFSAHTDYQQTSEFIRALKPPHVILVHGEQNEMARLKAALIREYEDNDEVHIEVHNPRNTEAVTLNFRGEKLAKVMGFLADKKPEQGQRVSGILVKRNFNYHILSPCDLSNYTDLAMSTVKQTQAIPYTGPFNLLCYQLQKLTGDVEELEIQEKPALKVFKNITVIQEPGMVVLEWLANPSNDMYADTVTTVILEVQSNPKIRKGAVQKVSKKLEMHVYSKRLEIMLQDIFGEDCVSVKDDSILSVTVDGKTANLNLETRTVECEEGSEDDESLREMVELAAQRLYEALTPVH	binds
CPSF100, endogenous (protein, UniProt Q9P2I0 1-782) MTSIIKLTTLSGVQEESALCYLLQVDEFRFLLDCGWDEHFSMDIIDSLRKHVHQIDAVLLSHPDPLHLGALPYAVGKLGLNCAIYATIPVYKMGQMFMYDLYQSRHNTEDFTLFTLDDVDAAFDKIQQLKFSQIVNLKGKGHGLSITPLPAGHMIGGTIWKIVKDGEEEIVYAVDFNHKREIHLNGCSLEMLSRPSLLITDSFNATYVQPRRKQRDEQLLTNVLETLRGDGNVLIAVDTAGRVLELAQLLDQIWRTKDAGLGVYSLALLNNVSYNVVEFSKSQVEWMSDKLMRCFEDKRNNPFQFRHLSLCHGLSDLARVPSPKVVLASQPDLECGFSRDLFIQWCQDPKNSIILTYRTTPGTLARFLIDNPSEKITEIELRKRVKLEGKELEEYLEKEKLKKEAAKKLEQSKEADIDSSDESDIEEDIDQPSAHKTKHDLMMKGEGSRKGSFFKQAKKSYPMFPAPEERIKWDEYGEIIKPEDFLVPELQATEEEKSKLESGLTNGDEPMDQDLSDVPTKCISTTESIEIKARVTYIDYEGRSDGDSIKKIINQMKPRQLIIVHGPPEASQDLAECCRAFGGKDIKVYMPKLHETVDATSETHIYQVRLKDSLVSSLQFCKAKDAELAWIDGVLDMRVSKVDTGVILEEGELKDDGEDSEMQVEAPSDSSVIAQQKAMKSLFGDDEKETGEESEIIPTLEPLPPHEVPGHQSVFMNEPRLSDFKQVLLREGIQAEFVGGVLVCNNQVAVRRTETGRIGLEGCLCQDFYRIRDLLYEQYAIV	binds
symplekin, endogenous (protein, UniProt Q92797 1-1274) MASGSGDSVTRRSVASQFFTQEEGPGIDGMTTSERVVDLLNQAALITNDSKITVLKQVQELIINKDPTLLDNFLDEIIAFQADKSIEVRKFVIGFIEEACKRDIELLLKLIANLNMLLRDENVNVVKKAILTMTQLYKVALQWMVKSRVISELQEACWDMVSAMAGDIILLLDSDNDGIRTHAIKFVEGLIVTLSPRMADSEIPRRQEHDISLDRIPRDHPYIQYNVLWEEGKAALEQLLKFMVHPAISSINLTTALGSLANIARQRPMFMSEVIQAYETLHANLPPTLAKSQVSSVRKNLKLHLLSVLKHPASLEFQAQITTLLVDLGTPQAEIARNMPSSKDTRKRPRDDSDSTLKKMKLEPNLGEDDEDKDLEPGPSGTSKASAQISGQSDTDITAEFLQPLLTPDNVANLVLISMVYLPEAMPASFQAIYTPVESAGTEAQIKHLARLMATQMTAAGLGPGVEQTKQCKEEPKEEKVVKTESVLIKRRLSAQGQAISVVGSLSSMSPLEEEAPQAKRRPEPIIPVTQPRLAGAGGRKKIFRLSDVLKPLTDAQVEAMKLGAVKRILRAEKAVACSGAAQVRIKILASLVTQFNSGLKAEVLSFILEDVRARLDLAFAWLYQEYNAYLAAGASGSLDKYEDCLIRLLSGLQEKPDQKDGIFTKVVLEAPLITESALEVVRKYCEDESRTYLGMSTLRDLIFKRPSRQFQYLHVLLDLSSHEKDKVRSQALLFIKRMYEKEQLREYVEKFALNYLQLLVHPNPPSVLFGADKDTEVAAPWTEETVKQCLYLYLALLPQNHKLIHELAAVYTEAIADIKRTVLRVIEQPIRGMGMNSPELLLLVENCPKGAETLVTRCLHSLTDKVPPSPELVKRVRDLYHKRLPDVRFLIPVLNGLEKKEVIQALPKLIKLNPIVVKEVFNRLLGTQHGEGNSALSPLNPGELLIALHNIDSVKCDMKSIIKATNLCFAERNVYTSEVLAVVMQQLMEQSPLPMLLMRTVIQSLTMYPRLGGFVMNILSRLIMKQVWKYPKVWEGFIKCCQRTKPQSFQVILQLPPQQLGAVFDKCPELREPLLAHVRSFTPHQQAHIPNSIMTILEASGKQEPEAKEAPAGPLEEDDLEPLTLAPAPAPRPPQDLIGLRLAQEKALKRQLEEEQKLKPGGVGAPSSSSPSPSPSARPGPPPSEEAMDFREEGPECETPGIFISMDDDSGLTEAALLDSSLEGPLPKETAAGGLTLKEERSPQTLAPVGEDAMKTPSPAAEDAREPEAKGNS	binds
CStF64, endogenous (protein, UniProt P33240 1-577) MAGLTVRDPAVDRSLRSVFVGNIPYEATEEQLKDIFSEVGPVVSFRLVYDRETGKPKGYGFCEYQDQETALSAMRNLNGREFSGRALRVDNAASEKNKEELKSLGTGAPVIESPYGETISPEDAPESISKAVASLPPEQMFELMKQMKLCVQNSPQEARNMLLQNPQLAYALLQAQVVMRIVDPEIALKILHRQTNIPTLIAGNPQPVHGAGPGSGSNVSMNQQNPQAPQAQSLGGMHVNGAPPLMQASMQGGVPAPGQMPAAVTGPGPGSLAPGGGMQAQVGMPGSGPVSMERGQVPMQDPRAAMQRGSLPANVPTPRGLLGDAPNDPRGGTLLSVTGEVEPRGYLGPPHQGPPMHHVPGHESRGPPPHELRGGPLPEPRPLMAEPRGPMLDQRGPPLDGRGGRDPRGIDARGMEARAMEARGLDARGLEARAMEARAMEARAMEARAMEARAMEVRGMEARGMDTRGPVPGPRGPIPSGMQGPSPINMGAVVPQGSRQVPVMQGTGMQGASIQGGSQPGGFSPGQNQVTPQDHEKAALIMQVLQLTADQIAMLPPEQRQSILILKEQIQKSTGAP	binds
